Out of some 53,000 sequences screened, about 3,700 (7%) were called active.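 The calls were made as follows: active = gene knockdowns whose robust z-score for IL-1 alpha signal is at least 2 or at most -2, so actives lie on both sides; inactive = the rest.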 The list shows a part of the results.

This test can be described thus: Components of the Cytosolic LPS Sensing Pathway: Gene Identification via Genome-wide siRNA Screen.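 Also: robust z of the log signal after scaling to non-targeting control siRNA wells of the plate.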 Conditions: RAW264.7 macrophages, IL-1a HTRF, actives lie on both sides, screened at 100 nM (by protocol), cells primed 5 h with Pam3CSK4 first. In short, it runs like this: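 Cells (RAW264.7, 1×10^4 per well) were transfected with siRNA at 100 nM and cultured 48h at 37 degrees C. Pam3CSK4 was added for 5 hours; LipidA transfection followed for 24 hour. IL-1a was then measured by HTRF.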
(In general: Time-resolved FRET reads energy transfer from a long-lived donor to a nearby acceptor.)
In the case of CCCGAUCUAUUGCACAAAUTT against Nxt2, the z-score is inactive: -1.29.
The figure for GGCCCAAUGAUUACAACAUTT against Vmn1r231 is inactive: 0.612; for CCAACCUAAACCAUGUACATT against Erich5 it is inactive: -0.515; for GGCCUGGAUGAAUGAAAAGTT against Gins4 it is inactive: 0.665.
As to CCGGAGCUUACUGGUGACATT against Ccdc116, the z-score is inactive: 0.539.
Regarding GGAAGUGGUCCACCUGAUCTT against Mms19, the z-score was inactive: -0.324.
The figure for CCUAGGUGUCACCAUGAACTT against Ssx9 is active: 2.02; for AUAUAACAGUGCCCAGCCUTT against Olfr885 it is inactive: 1.25; for GGUCUUUCAUCUGACCAGCTT against Slc10a1 it is inactive: 0.219.
Then GGAGAAAGGUUUUGUUAUGTT against Gtf2h2, with inactive: 1.5; and GGCAUAAAAAAGUAAAUGGTT against Slc41a2, with inactive: 1.24.
With GGAGAGAAGAAAAAGAAGGTT against Rrbp1, the z-score was inactive: 0.647.
The figure for CCUGGAAAUAUCAAAUUUCTT against Olfr850 is inactive: -0.414; for GCGAAAAUAUUUUCCGGGCTT against Itga2 it is inactive: 0.99.
Then GCCAAACGAACAACAAAACTT against Chrm3, with inactive: -0.166; and GGCUGAUCCAUUUUCACAATT against Adam6a, with active: -2.77; and GCAGUACACUUCCAUAUGGTT against Prlr, with inactive: 0.334.
GGAUGGUGCUGUAAAGAAATT against Utp3: the z-score is inactive: -0.013.
With “GCGUGCAGUGUCGUGAAAGTT against D430018E03Rik”, the z-score is inactive: -0.639.
In the case of “GGUACAUUAACCCUAAAGATT against 4930550C14Rik”, the z-score is inactive: 1.04.
The figure for GGACAAGGAAAAGUCUUUATT against Cep97 is inactive: 0.894; for GCGACUGUACAACGAAUUGTT against Clp1 it is active: 3.34; for GGGAAUAGCAAAUAAAGCATT against Lztr1 it is inactive: -0.674.
The figure for GGUACUCACCGGAUACCAATT against Olfr512 is inactive: 0.214; for GCUUUAUAAAGUGGGUAGATT against Bub1 it is inactive: 0.414; for CCAAGCUUAUUGACAAUGATT against Spta1 it is inactive: 0.213.
Then GGAGGAACCCUCAUUUUAGTT against Prxl2c, with inactive: -0.897.
Regarding GCCACAUCGUAGACAAGUATT against Zfp41, the z-score is active: -2.71.
Consider GCUACAGUUUGUGGGUGACTT against Zmynd15, for which the z-score is inactive: 0.11.
Turning to GGGUUUGUGGGAUACAAUCTT against Smarce1, the z-score is active: 2.97.
The figure for GGAAAUGCCAUAGUCCUAUTT against Mrgprb5 is active: -2.54; for CCCGGGAUACCACUUAUGUTT against Aen it is inactive: 0.0179.
Then CCUUUCUUCCUAGUUCUUCTT against Olfr38, with inactive: -0.398.
With GGCACGACUACAUAUUUAATT against Wdfy3, the z-score is inactive: 1.12.
GCAUUUGAAAUAUUCGCUATT against Hyal5: the z-score is inactive: 0.293.
The figure for GCAGCAUCAGCAUUUAUAATT against Nmur2 is inactive: -0.166; for GGCCCUGAGAAGAAAACUATT against Syngr3 it is inactive: -0.118; for CCCUGGCGAAUCAGAUUGCTT against Sohlh1 it is inactive: 1.02.
The figure for GCCAUUGUACCAUGAAGAGTT against Trappc12 is inactive: -1.02.
The figure for GCAACACCAGAGUAUGUUATT against Cldn34b3 is inactive: 0.794; for CCCUACUAUUGACGAAAACTT against Hoxc12 it is inactive: 0.345.
On to GGCAUGUCUAAUGAACUCATT against Acly, for which the z-score was inactive: -0.502.
For the sequence GGCAUCCAUUCAAGAGAAUTT against Smpd4, the z-score was inactive: -0.99.
The figure for GGACUCACAGGUUGAAAUATT against Tex29 is inactive: -0.797; for “GGGUUCAUAUGUUUUGGAUTT against C130050O18Rik” it is inactive: 1.38.
Then GGCUUUGCAGGAAUACAUGTT against Ccdc61, with inactive: -1.12.
Then CCGUUAUCUCUUGAAACAUTT against Kitl, with inactive: -0.304; and GGUCUUGUUCUCAUCAACATT against Ndrg2, with inactive: -0.0721; and GGAAGUGCAAGUGACAAAGTT against Adat1, with inactive: 0.927.
As to GGCAUACCGAAAGUUAGCCTT against Dnaja2, the z-score is inactive: -0.724.
Consider GGCAGGUGACUCCAAAUGUTT against Hdc, for which the z-score is inactive: -0.862.
For the sequence GGAAUGAGCAUGUUAAAUGTT against Maoa, the z-score is inactive: -0.451.
Then GCUAGAGUGUCAUGACUUUTT against Zbtb44, with inactive: 0.897; and GGACCUCAAAAGCUAUUUUTT against Slco1a6, with inactive: -1.62.
The figure for “GCGAUAAGCAGAAUGGCAGTT against 8030462N17Rik” is inactive: -0.9; for GGAGGAGUAUGAAGAGCUGTT against Poc5 it is inactive: -0.0911; for CCGAAACUGUUUGACCUCATT against Rasal1 it is inactive: -1.56.
Then CCAGGAUAACCGUAUUAAUTT against Gm2a, with inactive: -1.02.
GGAGGUAUUCACAAAGAGATT against Parp8: the z-score is inactive: -0.248.
Then CCUUCCAUGUCUAAAAUGGTT against Aldh4a1, with inactive: -0.12.
On to GGCUUGUGCAAAUCCCACATT against Ppp1r14a, for which the z-score is inactive: -0.991.
The figure for GGGAUCUUAAUGAAGAAGATT against Cd7 is inactive: -0.335; for CCAGAGUAAUUCAUCAUACTT against Agxt it is inactive: 0.172; for GCGACUGUUUAGCUUUUUCTT against Rilpl1 it is inactive: 0.2.
Then CGAGCAUGUGUUACAUUAUTT against Tnfaip8l1, with inactive: 0.778; and GCAGGGUCAUAAUUGUUCUTT against Tpd52l1, with inactive: 0.0898.
The figure for CCAUGCGUAUCCGUAUGACTT against Naa38 is inactive: 0.348.
On to CCAACCAGUUGAGUUCCAGTT against Nefl, for which the z-score was inactive: 1.93.

For the origin of these results see PubChem BioAssay AID1508600 (Functional Genomics Laboratory (NCATS/FGL), 2020).
